Data on seven substances can be found in patent US20040180811A1.

Sequences of proteins named here, by UniProt entry; tags and fusion partners are left off. A change or cut given only in a name is not applied to a line headed by its entry. Residues count along the entry.
UniProt Q6WCQ1: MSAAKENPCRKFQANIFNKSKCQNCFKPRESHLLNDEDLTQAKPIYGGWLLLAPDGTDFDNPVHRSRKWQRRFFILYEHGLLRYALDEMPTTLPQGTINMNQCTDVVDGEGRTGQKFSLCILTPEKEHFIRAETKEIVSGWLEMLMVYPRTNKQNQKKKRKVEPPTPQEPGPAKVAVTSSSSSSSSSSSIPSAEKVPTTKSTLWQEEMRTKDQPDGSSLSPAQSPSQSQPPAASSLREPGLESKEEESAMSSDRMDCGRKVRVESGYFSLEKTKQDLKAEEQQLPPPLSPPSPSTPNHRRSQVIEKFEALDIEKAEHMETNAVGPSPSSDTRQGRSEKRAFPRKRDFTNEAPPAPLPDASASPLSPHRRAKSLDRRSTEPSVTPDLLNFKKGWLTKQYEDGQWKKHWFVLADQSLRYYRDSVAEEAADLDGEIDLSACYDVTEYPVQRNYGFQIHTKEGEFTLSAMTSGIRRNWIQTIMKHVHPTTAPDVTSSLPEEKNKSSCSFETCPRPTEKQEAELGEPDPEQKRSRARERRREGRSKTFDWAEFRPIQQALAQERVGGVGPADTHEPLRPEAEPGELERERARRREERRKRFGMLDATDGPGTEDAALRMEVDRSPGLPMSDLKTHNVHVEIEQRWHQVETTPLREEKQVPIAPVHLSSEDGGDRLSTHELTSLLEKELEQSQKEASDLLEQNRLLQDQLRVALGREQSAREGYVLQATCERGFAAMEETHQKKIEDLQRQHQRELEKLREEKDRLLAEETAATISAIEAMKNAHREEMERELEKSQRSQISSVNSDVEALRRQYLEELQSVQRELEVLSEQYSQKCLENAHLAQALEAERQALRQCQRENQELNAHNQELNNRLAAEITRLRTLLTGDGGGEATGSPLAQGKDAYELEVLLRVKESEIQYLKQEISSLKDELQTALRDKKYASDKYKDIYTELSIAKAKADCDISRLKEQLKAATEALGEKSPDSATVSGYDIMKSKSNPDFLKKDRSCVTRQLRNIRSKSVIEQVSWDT
UniProt P61586: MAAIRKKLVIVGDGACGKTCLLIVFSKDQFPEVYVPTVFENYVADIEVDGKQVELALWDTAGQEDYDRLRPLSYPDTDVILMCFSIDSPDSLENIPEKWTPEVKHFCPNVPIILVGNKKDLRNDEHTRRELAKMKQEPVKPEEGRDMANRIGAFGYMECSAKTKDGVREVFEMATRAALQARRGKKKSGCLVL
UniProt O14974: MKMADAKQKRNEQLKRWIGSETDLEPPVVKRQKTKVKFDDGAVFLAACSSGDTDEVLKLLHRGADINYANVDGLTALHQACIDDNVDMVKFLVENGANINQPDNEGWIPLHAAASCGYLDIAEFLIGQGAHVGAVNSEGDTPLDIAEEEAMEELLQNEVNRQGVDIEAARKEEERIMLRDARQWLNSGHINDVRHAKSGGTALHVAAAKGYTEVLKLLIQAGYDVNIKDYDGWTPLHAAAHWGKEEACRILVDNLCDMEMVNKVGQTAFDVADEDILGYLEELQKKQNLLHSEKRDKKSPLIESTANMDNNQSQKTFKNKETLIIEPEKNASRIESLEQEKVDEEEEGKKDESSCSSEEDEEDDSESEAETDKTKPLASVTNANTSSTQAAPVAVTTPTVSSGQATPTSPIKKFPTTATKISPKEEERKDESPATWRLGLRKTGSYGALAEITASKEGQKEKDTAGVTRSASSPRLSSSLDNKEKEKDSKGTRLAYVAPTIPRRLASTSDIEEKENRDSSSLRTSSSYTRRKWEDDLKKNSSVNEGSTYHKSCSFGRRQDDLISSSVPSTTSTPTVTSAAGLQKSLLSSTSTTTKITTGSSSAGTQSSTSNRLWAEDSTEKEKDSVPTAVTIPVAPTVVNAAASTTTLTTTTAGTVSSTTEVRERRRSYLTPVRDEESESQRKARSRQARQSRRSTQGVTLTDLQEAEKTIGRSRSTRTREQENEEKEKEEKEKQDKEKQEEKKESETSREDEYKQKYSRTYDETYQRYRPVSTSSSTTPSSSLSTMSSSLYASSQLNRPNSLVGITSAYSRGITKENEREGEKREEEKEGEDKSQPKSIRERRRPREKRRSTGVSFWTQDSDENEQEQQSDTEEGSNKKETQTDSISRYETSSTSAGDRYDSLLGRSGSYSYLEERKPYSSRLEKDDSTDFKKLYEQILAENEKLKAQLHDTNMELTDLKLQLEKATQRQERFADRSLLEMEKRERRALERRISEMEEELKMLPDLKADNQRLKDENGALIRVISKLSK
UniProt Q8C6B2, residues 1-99: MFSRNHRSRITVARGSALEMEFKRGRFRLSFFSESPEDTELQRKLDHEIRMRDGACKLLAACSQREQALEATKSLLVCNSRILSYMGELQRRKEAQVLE

Assay [1] concerns the target Full-length M-RIP with an amino-terminal Flag tag (human) (UniProt Q6WCQ1). The assay can be described thus: 6×his RhoA incubated with COS1 lysate containing Flag M-RIP, Ni-NTA precipitation, anti-Flag immunoblot.
For assay [2], the target named is GST-M-RIP545-878 (RhoA-binding domain plus the remaining carboxy-terminus of CC2) (human) (UniProt Q6WCQ1). The assay can be described thus: GST pull-down from lysate of COS1 cells transfected with Flag-RhoA, anti-Flag immunoblot. On the technique in general: A western blot detects proteins with antibodies after separation by electrophoresis.
Assay [3] has as its target GST-M-RIP545-823 (M-RIP RhoA-binding domain) (human) (UniProt Q6WCQ1). The assay is described as above.
Assay [4] has as its target 6×his RhoA loaded with GDPβS (UniProt P61586). The assay can be described thus: purified protein interaction, GST fusions on glutathione-agarose beads, anti-RhoA immunoblot.
Assay [5] deals with 6×his RhoA loaded with GTPγS (UniProt P61586). Described as above.
Assay [6] addresses Full-length M-RIP with an amino-terminal Flag tag (human) (UniProt Q6WCQ1). The assay can be described thus: GST pull-down from COS-7 lysate overexpressing Flag-M-RIP, anti-Flag immunoblot.
The target in assay [7] is GFP-MBS (full-length human MBS fused to GFP) (human) (UniProt O14974). The assay can be described thus: GST pull-down from lysate of transfected COS1 cells, anti-MBS immunoblot.
Assay [8] has as its target Myosin binding subunit (MBS) of myosin phosphatase, endogenous in human vascular smooth muscle cells (human) (UniProt O14974). The assay can be described thus: GST pull-down from vascular smooth muscle cell lysate, anti-MBS immunoblot.

No constants are given. Whether binding was seen depends on the method and setting. For part of these data: Binding seen in cells or lysates may run through a third protein. Some binding calls cover weakened binding; strength is not graded here.

Turning to “6×his RhoA loaded with GTPγS (from UniProt P61586 1-193) (enzyme)”, the binding result in assay [1] is recorded as “binds”.

Consider “Flag-RhoA (wild-type) expressed in COS1 cells (from UniProt P61586 1-193) (enzyme)”, for which the binding result in assay [2] and in assay [3] was “binds” in each case. As to “GST-M-RIP545-823 (M-RIP RhoA-binding domain) (from UniProt Q6WCQ1 546-824)”, the binding entry in assay [4] and in assay [5] was “binds” in each case. Regarding “GST-MBSLZ (amino acids 847-1030 of MBS, includes the leucine zipper domain) (from UniProt O14974 847-1030)”, the binding entry in assay [6] is listed as “binds”. Take “GST-M-RIP545-878 (RhoA-binding domain plus the remaining carboxy-terminus of CC2) (from UniProt Q6WCQ1 546-879)”: the binding result in assay [7], in assay [4], in assay [5] and in assay [8] was “binds” each time.

Take “GST-Rhotekin Rho-binding domain (amino acids 1-99 of mouse Rhotekin) (from UniProt Q8C6B2 1-99)”: the binding entry in assay [5] is “binds”. On to “6×his RhoA loaded with GDPβS (from UniProt P61586 1-193) (enzyme)”, for which the binding entry in assay [1] was “binds”.
